A short description of this test: IkB Signaling. The following applies: ABC-DLBCL IkBa-CBG/CBR dual luciferase ratio (green luciferase fused to IkBa over red control in OCI-Ly3 lymphoma cells), 4 h. The procedure, abridged:
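Luminescence ratio of IκBα-fused green versus native red beetle luciferase in OCI-Ly3 cells, 4 h post-doxycycline with compound; red signal alone, scaled from basal (0%) to zero light (-100%), flagged nonspecific or cytotoxic effects.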

[1] abbreviates: measured here: control luc red channel unless noted.

Some of the results follow. These are further read-outs of the screen, such as a control signal, another cell line or another target. No call is given for them. Most of these compounds were active or inconclusive in the main read-out, so they are no random draw. Words in brackets tell the shape of the fitted curve; partial curves, single points and poor fits give uncertain potencies.

These results are taken from PubChem BioAssay AID445 (National Center for Advancing Translational Sciences (NCATS), 2006).

What is called AC50 is the concentration giving half of the maximal activity seen.

For `CCCc1cnc2c(c1SCc1cccc(C)c1)c(=O)n(C)c(=O)n2C`, under setting [1], the half-maximal activity concentration (AC50) was 6.31 µM [falling, single point].

Consider `COc1cc(OC)c(NC(=O)c2sc3nc4n(c(=O)c3c2C)CCCC4)cc1Cl`, for which the half-maximal activity concentration (AC50) under setting [1] is 12.6 µM [falling, partial curve].

For the molecule `CCN(CC)S(=O)(=O)c1ccc2nc(NC(=O)c3cccs3)sc2c1`, the concentration at half-maximal activity (AC50) under setting [1] was 12.6 µM [falling, partial curve].

On to `COc1ccc(S(=O)(=O)NCCc2sc(C)nc2C)cc1`, for which, under setting [1], the half-maximal activity concentration (AC50) was 0.00631 µM [rising, full curve, poor fit].

In the case of `COc1ccc(-n2c(-c3ccccc3F)nc3c(cnn3-c3ccc(C)cc3)c2=O)cc1`, the AC50 under setting [1] was 5.01 µM [falling, partial curve].

In the case of `Cc1ccc(CCNC(=O)CN2C(=O)COc3ccc(S(=O)(=O)N4CCCC4)cc32)cc1`, under setting [1], the AC50 is 0.0501 µM [falling, full curve, poor fit].

With `CCCCC(=O)N1CC(=O)Nc2ccc(F)cc2C1c1ccc(F)cc1` (stereo not given), under setting [1], the AC50 is 2 µM [falling, full curve, poor fit].

For `CCn1c(CNC(=O)C23CC4CC(CC(C4)C2)C3)nnc1SCC(=O)Nc1ccc(C)cc1`, the half-maximal activity concentration (AC50) under setting [1] was 25.1 µM [falling, single point].

Take `CC(C)(C)n1nnnc1C(c1cc2cc3c(cc2[nH]c1=O)OCO3)N1CCN(c2ccccc2)CC1` (stereo not given): the half-maximal activity concentration (AC50) under setting [1] was 12.6 µM [falling, partial curve].

In the case of `O=C1CC(SCc2nc3ccccc3[nH]2)C(=O)N1c1ccc(F)cc1` (stereo not given), the half-maximal activity concentration (AC50) under setting [1] was 6.31 µM [falling, partial curve].

On to `Cc1ccc2c(Sc3ccccc3)c(C(=O)NCc3ccccc3F)[nH]c2c1`, for which the concentration at half-maximal activity (AC50) under setting [1] was 0.00794 µM [rising, full curve].

With `CCOc1ccccc1NC(=O)CSc1nc2ccccc2nc1Cc1ccc(C)cc1`, the AC50 under setting [1] is 10 µM [falling, partial curve].

For `CCn1nc(C)c(NC(=O)CCCSc2nc(-c3ccco3)cc(C(F)(F)F)n2)c1C`, under setting [1], the AC50 was 20 µM [falling, partial curve].

`CC(=O)c1ccc(NC(=O)c2sc(-n3nc(C)c(CCC(C)C)c3C)nc2C)cc1`: the concentration at half-maximal activity (AC50) under setting [1] is 10 µM [falling, partial curve].

Take `CC(=O)N1CCCC1c1nc2ccccc2n1Cc1c(F)cccc1Cl` (stereo not given): under setting [1], the half-maximal activity concentration (AC50) is 15.8 µM [falling, single point].

With `CCc1ccc(OCC(=O)Nc2ccc(S(=O)(=O)Nc3onc(C)c3C)cc2)cc1`, the AC50 under setting [1] is 5.01 µM [falling, partial curve].

As to `COC(=O)/C=C\c1cc(O)ccc1O`, the AC50 was 39.8 µM [rising, partial curve, poor fit] (measured here: IkB-luc green channel) and 39.8 µM [falling, single point] (measured here: control luc red channel).

As for `Cc1ccccc1NC(=O)Nc1csc2c1CCCC2`, the AC50 under setting [1] was 15.8 µM [falling, partial curve].

For `COc1ccc2nc(NC(=O)C3CCCN(S(=O)(=O)c4cccs4)C3)sc2c1` (stereo not given), the half-maximal activity concentration (AC50) under setting [1] is 15.8 µM [falling, partial curve].

In the case of `CCOc1ccc(CN2C(=O)c3ccccc3Sc3ccc(C(=O)NCc4ccc5c(c4)OCO5)cc32)cc1`, the concentration at half-maximal activity (AC50) under setting [1] was 0.794 µM [falling, full curve].

Turning to `COc1ccc(C2C(C(=O)Nc3ccccc3)=C(C)Nc3nc(-c4ccccc4)nn32)c(OC)c1` (stereo not given), the concentration at half-maximal activity (AC50) under setting [1] is 15.8 µM [falling, partial curve].

As for `Cc1cccc(NC(=O)Cn2c(=O)n(CCc3ccccc3)c(=O)c3ccccc32)c1`, the AC50 under setting [1] is 10 µM [falling, partial curve, poor fit].

Turning to `CN(C)c1ccc(NC(=O)c2cccc(N3C(=O)C4C5C=CC(C5)C4C3=O)c2)cc1` (stereo not given), the AC50 under setting [1] is 12.6 µM [falling, partial curve].

With `Cc1cccc(N2CCN(C(=O)C3CCCN(S(=O)(=O)c4c(C)noc4C)C3)CC2)c1C` (stereo not given), under setting [1], the concentration at half-maximal activity (AC50) is 15.8 µM [falling, partial curve].

For the molecule `O=C(Cn1c(=O)n(Cc2ccco2)c(=O)c2oc3ccccc3c21)Nc1ccc(F)cc1F`, the AC50 under setting [1] is 10 µM [falling, partial curve].

For the molecule `CCC(Sc1nnc(C)n2c1cc1occc12)C(=O)Nc1ccccc1F` (stereo not given), the AC50 under setting [1] was 25.1 µM [falling, single point].

On to `Cn1c(=O)n(C)c2cc(NS(=O)(=O)c3ccccc3)c(NCc3ccccc3)cc21`, for which the AC50 under setting [1] is 20 µM [falling, single point].

In the case of `CCOC(=O)c1cnc2sc3c(n2c1=O)CCCC3`, the half-maximal activity concentration (AC50) under setting [1] is 1.58 µM [falling, partial curve].

As to `O=C(Nc1cccc(Cl)c1)c1c(NC(=O)C(F)(F)F)sc2c1CCCC2`, the AC50 under setting [1] was 2 µM [falling, full curve].

As for `CSc1nsc(NC(=O)Cc2ccccc2)n1`, the half-maximal activity concentration (AC50) under setting [1] was 12.6 µM [falling, single point].

`COc1ccc(S(=O)(=O)N(CC(=O)NCc2ccccc2OC)c2ccc(C)cc2)cc1`: the half-maximal activity concentration (AC50) under setting [1] was 39.8 µM [falling, partial curve].

As to `CCOCCOC(=O)c1ccc(NC(=O)/C=C/c2ccc(OC)c(OC)c2)cc1`, under setting [1], the AC50 was 15.8 µM [falling, partial curve, poor fit].

`O=C(CSc1ncc2c(n1)-c1ccccc1N(Cc1ccc(F)cc1)S2(=O)=O)c1ccc(Cl)cc1`: the AC50 under setting [1] is 10 µM [falling, partial curve].

For the molecule `Cc1cccc(C)c1-n1ncc(C(=O)Nc2ccc3c(c2)OCCO3)c1C1CCN(C(=O)OC(C)(C)C)CC1`, the AC50 under setting [1] was 15.8 µM [falling, partial curve].

For `COc1ccc(Nc2c(-c3cc(Br)ccc3O)nc3ncccn23)cc1OC`, under setting [1], the AC50 was 12.6 µM [falling, partial curve].

With `Cc1ccc(NCc2cccn2-c2nnc(N3CCC(C(=O)NCc4ccc(OC(C)C)cc4)CC3)s2)cc1`, the half-maximal activity concentration (AC50) under setting [1] is 0.126 µM [falling, full curve].

For `COc1ccccc1N1CCN(S(=O)(=O)c2c(C)sc3ncn(CC(=O)N(C)c4ccc(C(C)C)cc4)c(=O)c23)CC1`, under setting [1], the concentration at half-maximal activity (AC50) is 7.94 µM [falling, full curve, poor fit].

As to `COc1ccccc1CNC(=O)CN1C(=O)CSc2ccc(S(=O)(=O)N3CCCC3)cc21`, the AC50 under setting [1] is 31.6 µM [falling, single point].

Consider `Cc1ccc(-c2noc(CNC(=O)c3ccc(C(C)(C)C)cc3)n2)cc1`, for which the AC50 under setting [1] is 20 µM [falling, partial curve].
